The target of the experiment is T1, human NPR3 (hNpr3) expressed on FreeStyle293 cells (human) (UniProt P17342).
T1 sequence: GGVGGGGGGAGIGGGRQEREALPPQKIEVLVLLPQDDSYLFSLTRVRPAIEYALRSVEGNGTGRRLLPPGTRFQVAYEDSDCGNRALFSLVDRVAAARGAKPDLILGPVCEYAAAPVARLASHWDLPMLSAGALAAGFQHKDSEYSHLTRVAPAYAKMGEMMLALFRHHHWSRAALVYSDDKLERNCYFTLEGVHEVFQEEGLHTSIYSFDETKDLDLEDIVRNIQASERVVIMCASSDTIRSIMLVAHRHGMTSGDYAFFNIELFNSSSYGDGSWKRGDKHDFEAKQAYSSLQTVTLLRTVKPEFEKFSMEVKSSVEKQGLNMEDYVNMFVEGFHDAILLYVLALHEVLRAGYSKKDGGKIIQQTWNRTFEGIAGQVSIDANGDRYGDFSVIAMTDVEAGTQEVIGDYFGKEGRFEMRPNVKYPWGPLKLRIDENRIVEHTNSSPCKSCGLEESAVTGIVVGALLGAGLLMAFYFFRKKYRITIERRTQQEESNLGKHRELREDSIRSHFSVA
Description: competition with BK-/BC-mMusclin on hNpr3-transfected FreeStyle293 cells, single concentration; binding shown by displacement.

These are yes or no findings as the source states them, for the method shown. Some binding calls cover weakened binding; strength is not graded here. Sequences can lack the tags named with a protein.

B1: His-Tyr-Cys-mMusclin (unlabeled) (ligand)
chain: MGSSHHHHHHSSGLVPYGCHMLASQEFGTASLQSPPTAREEKSATELSAKLLRLDDLVSLENDVFETKKKRSFSGFGSPLDRLSAGSVEHRGKQRKAVDHSKKRFGIPMDRIGRNRLSSSRG
Consider B1, for which the binding result was “binds”.

B2: C-terminal mMusclin (mCA) protein (peptide)
chain: SFSGFGSPLDRLSAGSVEHRGKQRKAVDHSKKRFGIPMDRIGRNRLSSSRG
For B2, the binding result was “binds”.

The values are drawn from patent US20110104705A1, “Musclin receptor and use thereof” (Takeda Pharmaceutical Company Limited, priority 2006, published 2011).
